From PMC5591008 come the findings set out here.

Assay [1] addresses Kek6-Flag (Drosophila). Kind of assay: affinity purification with mass spectrometry; lysate of S2 cells transfected with pAct5C-Kek6-3xFlag on anti-Flag magnetic beads overnight at 4°C; eluted proteins on SDS-PAGE, in-gel trypsin, LC-MS/MS; mock-transfected cells as control.
The target of assay [2] is Kek6-Flag (Drosophila). The assay is described as follows: affinity purification with mass spectrometry; Kek6-3xFlag from transfected S2 cells held on anti-Flag magnetic beads, re-incubated with adult fly (OregonR) head lysate in NP-40 buffer overnight at 4°C; SDS-PAGE, in-gel trypsin, LC-MS/MS; mock control.

These are yes or no findings as the source states them, for the method shown. In cells and extracts the contact can be indirect. These calls come from enrichment with a bait or labelling near it, and not all partners need be listed.

B1: VAP33A (endogenous, S2 cells and adult fly heads) (protein, UniProt Q9W4N8 1-269)
chain: MSKSLFDLPLTIEPEHELRFVGPFTRPVVTIMTLRNNSALPLVFKIKTTAPKRYCVRPNIGKIIPFRSTQVEICLQPFVYDQQEKNKHKFMVQSVLAPMDADLSDLNKLWKDLEPEQLMDAKLKCVFEMPTAEANAENTSGGGAVGGGTGAAGGGSAGANTSSASAEALESKPKLSSEDKFKPSNLLETSESLDLLSGEIKALRECNIELRRENLHLKDQITRFRSSPAVKQVNEPYAPVLAEKQIPVFYIAVAIAAAIVSLLLGKFFL
Take B1: the binding result in assay [1] and in assay [2] was “binds” in each case.
